Data as given in PubChem BioAssay AID1259308 (NCATS, 2017)
The whole screen tested about 59,000 reagents; this is an unselected part. Of all reagents, about 1,510 (2.6%) got an active call. 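Calls use total luciferase alone and ignore viability, so some active siRNAs may act by altering cell number.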 Entries without a mark were called inactive. Reagents against one gene are numbered here. Reagent sequences are not shown.

Assay: 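Genes whose loss raises luciferase production in HEK293 cells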 (primary screen)
System: human HEK293 embryonic kidney cells stably expressing firefly luciferase (HEK-CMV-Luc2-Hygro)
Reagents: single siRNA against human genes, 0.8 pmol siRNA per well
Time to read-out: 72 h
Read-out: 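Luciferase light (ONE-Glo) measured on one replicate plate set and viability (CellTiter-Glo) on the other, scaled to a negative control siRNA, with robust z-scores and luciferase per cell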
Reading the numbers: total luciferase, z-score and total luciferase, % of control: higher = more reporter protein produced; luciferase per cell, z-score: higher = more reporter output per viable cell; viable cells, % of control: higher = more viable cells
Rule for the call: 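An siRNA counts as active if its total luciferase robust z-score exceeds 3; genes with two or more such siRNAs out of three were retested with fresh siRNAs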
Meaning of the calls: active = raised luciferase; inactive = no rise

gene symbol | siRNA no. | total luciferase, z-score | total luciferase, % of control | luciferase per cell, z-score | viable cells, % of control
MXD4 | 1 | 1.43 | 110 | 1.06 | 93.2
MXD4 | 2 | 0.811 | 98 | 0.679 | 91.6
MXD4 | 3 | 0.554 | 92.9 | 0.598 | 88.7
GNMT | 1 | -0.204 | 77.8 | -0.179 | 91.2
GNMT | 2 | 0.0169 | 82.2 | -0.54 | 106
GNMT | 3 | -1.46 | 52.8 | -1.26 | 82.3
DUOX2 | 1 | 0.394 | 89.7 | -0.762 | 123
DUOX2 | 2 | -1.43 | 53.5 | -0.566 | 69.3
DUOX2 | 3 | -0.384 | 74.2 | -0.144 | 86.2
NCR1 | 1 | 0.595 | 93.7 | 0.151 | 101
NCR1 | 2 | 3.54 (active) | 152 | 3.09 | 75.4
NCR1 | 3 | -0.84 | 65.2 | -0.828 | 90.6

Reagents listed above with an active call, once more:
gene symbol | siRNA no. | total luciferase, z-score | total luciferase, % of control | luciferase per cell, z-score | viable cells, % of control
NCR1 | 2 | 3.54 (active) | 152 | 3.09 | 75.4

Next entries:
gene symbol | siRNA no. | total luciferase, z-score | total luciferase, % of control | luciferase per cell, z-score | viable cells, % of control
VPS13C | 1 | 0.373 | 89.3 | 0.072 | 97.9
VPS13C | 2 | -0.209 | 77.7 | -0.727 | 105
VPS13C | 3 | 0.0502 | 82.9 | 0.201 | 87.8
NFASC | 1 | -0.75 | 67 | -0.973 | 96.7
NFASC | 2 | 0.209 | 86 | -0.419 | 107
NFASC | 3 | -0.763 | 66.7 | -0.341 | 81.5
RB1 | 1 | 0.000771 | 81.9 | -0.542 | 106
RB1 | 2 | -1.64 | 49.3 | -2.2 | 98.4
RB1 | 3 | 0.732 | 96.4 | 0.379 | 97.5
ETV3L | 1 | -0.489 | 72.2 | -0.949 | 104
ETV3L | 2 | -1.51 | 51.9 | -2.09 | 101
ETV3L | 3 | 1.05 | 103 | 0.142 | 111
